PubChem BioAssay AID1259308 – NCATS | 2017
Assay: 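Knock-downs that increase output of a recombinant reporter protein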 (primary screen). Cell system: human HEK293 embryonic kidney cells stably expressing firefly luciferase (HEK-CMV-Luc2-Hygro). Knock-down reagent: single siRNA against human genes, 0.8 pmol siRNA per well. Duration: 72 h. Read-out: 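Luciferase light (ONE-Glo) measured on one replicate plate set and viability (CellTiter-Glo) on the other, scaled to a negative control siRNA, with robust z-scores and luciferase per cell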. Scale: total luciferase, z-score and total luciferase, % of control: higher = more reporter protein produced. Rule for the call: 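Active when the median/MAD z-score for overall luciferase is greater than 3; a gene was taken forward for validation with new siRNAs if at least two of its three siRNAs passed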. Meaning of the calls: active = raised luciferase; inactive = no rise.
Here is one part, drawn at random, of about 59,000 reagents tested. Over the whole deposit, about 1,510 (2.6%) got an active call. 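Calls use total luciferase alone and ignore viability, so some active siRNAs may act by altering cell number.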 Reagents against one gene are numbered here. Further read-outs or replicates are left out here. Reagent sequences are not shown.

Against HSD11B2 (hydroxysteroid 11-beta dehydrogenase 2) #1, the values are total luciferase, z-score -0.706; total luciferase, % of control 67.8; inactive.
With knock-down of HSD11B2 (hydroxysteroid 11-beta dehydrogenase 2) #2 the results were total luciferase, z-score -0.093; total luciferase, % of control 80; inactive.
For HSD11B2 (hydroxysteroid 11-beta dehydrogenase 2) #3, the entry reads total luciferase, z-score 1.13; total luciferase, % of control 104; inactive.
SPINK4 (serine peptidase inhibitor Kazal type 4) #1 scored total luciferase, z-score -0.147; total luciferase, % of control 79; inactive.
SPINK4 (serine peptidase inhibitor Kazal type 4) #2 gave total luciferase, z-score -0.177; total luciferase, % of control 78.4; inactive.
After knock-down of SPINK4 (serine peptidase inhibitor Kazal type 4) #3, the record shows total luciferase, z-score -0.0681; total luciferase, % of control 80.5; inactive.
SLC28A2 #1 showed total luciferase, z-score -0.961; total luciferase, % of control 62.8; inactive.
Silencing of SLC28A2 #2 gave: total luciferase, z-score -0.917; total luciferase, % of control 63.7; inactive.
With knock-down of SLC28A2 #3, the record shows total luciferase, z-score 0.292; total luciferase, % of control 87.7; inactive.
MRM2 (mitochondrial rRNA methyltransferase 2) #1 showed total luciferase, z-score 0.0445; total luciferase, % of control 82.8; inactive.
After knock-down of MRM2 (mitochondrial rRNA methyltransferase 2) #2, the record shows total luciferase, z-score 2.81; total luciferase, % of control 138; inactive.
For MRM2 (mitochondrial rRNA methyltransferase 2) #3 the deposit lists total luciferase, z-score 0.516; total luciferase, % of control 92.1; inactive.
MSH2-OT1 (MSH2 overlapping transcript 1) #1 showed total luciferase, z-score 5.94; total luciferase, % of control 200; active.
Silencing of MSH2-OT1 (MSH2 overlapping transcript 1) #2 gave: total luciferase, z-score 0.302; total luciferase, % of control 87.9; inactive.
Against MSH2-OT1 (MSH2 overlapping transcript 1) #3 the deposit lists total luciferase, z-score 2.78; total luciferase, % of control 137; inactive.
After knock-down of MXRA8 (matrix remodeling associated 8) #1, the record shows total luciferase, z-score 0.94; total luciferase, % of control 101; inactive.
Against MXRA8 (matrix remodeling associated 8) #2, the entry reads total luciferase, z-score 3.1; total luciferase, % of control 143; active.
Knock-down of MXRA8 (matrix remodeling associated 8) #3 resulted in: total luciferase, z-score -1.78; total luciferase, % of control 46.5; inactive.
With knock-down of BRF1 (BRF1 general transcription factor IIIB subunit) #1, the screen gave total luciferase, z-score -2.43; total luciferase, % of control 33.5; inactive.
With knock-down of BRF1 (BRF1 general transcription factor IIIB subunit) #2, the screen gave total luciferase, z-score 0.266; total luciferase, % of control 87.2; inactive.
With knock-down of BRF1 (BRF1 general transcription factor IIIB subunit) #3, the record shows total luciferase, z-score -0.0808; total luciferase, % of control 80.3; inactive.

As entered above.
Value for MSH2-OT1 (MSH2 overlapping transcript 1) #1 under “total luciferase, % of control”: 200
MXRA8 (matrix remodeling associated 8) #3, total luciferase, % of control: 46.5

Further results:
Against HNRNPU (heterogeneous nuclear ribonucleoprotein U) #1, the values are total luciferase, z-score 0.859; total luciferase, % of control 99; inactive.
Against HNRNPU (heterogeneous nuclear ribonucleoprotein U) #2 the deposit lists total luciferase, z-score 0.398; total luciferase, % of control 89.8; inactive.
Knock-down of HNRNPU (heterogeneous nuclear ribonucleoprotein U) #3 came out at: total luciferase, z-score -1.1; total luciferase, % of control 59.9; inactive.
EFR3B (EFR3 homolog B) #1 scored total luciferase, z-score -0.488; total luciferase, % of control 72.2; inactive.
Depletion of EFR3B (EFR3 homolog B) #2 came out at: total luciferase, z-score -0.015; total luciferase, % of control 81.6; inactive.
Knock-down of EFR3B (EFR3 homolog B) #3 came out at: total luciferase, z-score -0.376; total luciferase, % of control 74.4; inactive.
MORN1 (MORN repeat containing 1) #1 showed total luciferase, z-score -0.451; total luciferase, % of control 72.9; inactive.
With knock-down of MORN1 (MORN repeat containing 1) #2, the screen gave total luciferase, z-score 0.607; total luciferase, % of control 94; inactive.
Depletion of MORN1 (MORN repeat containing 1) #3 came out at: total luciferase, z-score -2.01; total luciferase, % of control 41.9; inactive.
Knock-down of MAIP1 (matrix AAA peptidase interacting protein 1) #1 came out at: total luciferase, z-score 0.149; total luciferase, % of control 84.8; inactive.
Against MAIP1 (matrix AAA peptidase interacting protein 1) #2, the entry reads total luciferase, z-score -0.282; total luciferase, % of control 76.3; inactive.
For MAIP1 (matrix AAA peptidase interacting protein 1) #3, the values are total luciferase, z-score 0.418; total luciferase, % of control 90.2; inactive.
